# Measured values from the supplement of paper PMC6411743.
# Chains of the proteins cited; added tags and fusions are not shown. Lines headed by an entry give the natural chain unless they say otherwise; changes in a name come on top.
# UniProt P49642: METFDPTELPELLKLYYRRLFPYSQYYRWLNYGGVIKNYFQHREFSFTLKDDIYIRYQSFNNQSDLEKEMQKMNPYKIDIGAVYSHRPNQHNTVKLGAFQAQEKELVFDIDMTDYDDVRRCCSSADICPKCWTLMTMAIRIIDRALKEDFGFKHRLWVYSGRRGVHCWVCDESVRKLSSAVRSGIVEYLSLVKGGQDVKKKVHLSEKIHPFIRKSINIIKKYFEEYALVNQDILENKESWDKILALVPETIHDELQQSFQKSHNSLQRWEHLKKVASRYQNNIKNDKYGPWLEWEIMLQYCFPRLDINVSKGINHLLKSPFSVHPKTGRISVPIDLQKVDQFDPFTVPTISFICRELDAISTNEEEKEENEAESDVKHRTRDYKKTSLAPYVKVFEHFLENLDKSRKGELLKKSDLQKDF
# UniProt P40925: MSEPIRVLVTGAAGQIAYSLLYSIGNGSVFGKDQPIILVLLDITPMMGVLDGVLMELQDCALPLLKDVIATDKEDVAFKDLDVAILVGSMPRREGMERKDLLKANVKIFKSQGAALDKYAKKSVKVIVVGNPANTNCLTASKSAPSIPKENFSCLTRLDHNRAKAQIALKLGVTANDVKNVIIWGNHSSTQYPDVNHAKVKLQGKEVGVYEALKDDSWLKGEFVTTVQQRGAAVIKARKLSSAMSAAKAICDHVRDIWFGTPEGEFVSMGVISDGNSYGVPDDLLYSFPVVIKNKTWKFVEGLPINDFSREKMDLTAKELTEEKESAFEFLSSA
# UniProt P49588, whole entry: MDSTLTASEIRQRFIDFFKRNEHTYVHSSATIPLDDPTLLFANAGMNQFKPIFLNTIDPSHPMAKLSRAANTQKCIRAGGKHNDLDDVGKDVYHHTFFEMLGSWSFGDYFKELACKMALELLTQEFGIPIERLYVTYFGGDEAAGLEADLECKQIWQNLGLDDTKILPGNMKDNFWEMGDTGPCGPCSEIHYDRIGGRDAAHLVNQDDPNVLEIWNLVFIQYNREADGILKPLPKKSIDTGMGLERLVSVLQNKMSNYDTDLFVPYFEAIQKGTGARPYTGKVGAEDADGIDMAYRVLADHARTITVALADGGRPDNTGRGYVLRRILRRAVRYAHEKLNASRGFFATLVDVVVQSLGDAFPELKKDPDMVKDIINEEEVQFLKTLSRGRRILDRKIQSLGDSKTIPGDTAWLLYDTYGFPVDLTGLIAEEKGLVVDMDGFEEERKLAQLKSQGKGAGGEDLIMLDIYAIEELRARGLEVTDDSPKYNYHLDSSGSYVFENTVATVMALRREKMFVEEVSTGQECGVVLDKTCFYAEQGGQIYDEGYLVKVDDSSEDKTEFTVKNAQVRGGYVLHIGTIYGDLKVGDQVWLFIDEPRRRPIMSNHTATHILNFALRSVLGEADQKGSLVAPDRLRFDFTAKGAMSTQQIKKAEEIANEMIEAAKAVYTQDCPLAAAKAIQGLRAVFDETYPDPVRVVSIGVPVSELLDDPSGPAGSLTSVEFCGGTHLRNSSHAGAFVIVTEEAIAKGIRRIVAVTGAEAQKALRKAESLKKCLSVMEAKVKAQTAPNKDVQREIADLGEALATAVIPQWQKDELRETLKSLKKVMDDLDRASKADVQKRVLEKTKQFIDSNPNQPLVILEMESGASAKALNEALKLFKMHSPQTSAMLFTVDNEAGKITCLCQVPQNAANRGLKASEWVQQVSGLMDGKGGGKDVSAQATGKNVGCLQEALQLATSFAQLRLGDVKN
# UniProt P41227: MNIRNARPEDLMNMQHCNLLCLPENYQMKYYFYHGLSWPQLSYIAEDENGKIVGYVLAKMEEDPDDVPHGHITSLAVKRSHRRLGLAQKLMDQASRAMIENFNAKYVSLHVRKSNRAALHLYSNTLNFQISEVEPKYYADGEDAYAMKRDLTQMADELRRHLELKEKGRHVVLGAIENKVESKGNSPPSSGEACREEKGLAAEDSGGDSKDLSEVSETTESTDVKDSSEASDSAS
# UniProt P43686, whole entry: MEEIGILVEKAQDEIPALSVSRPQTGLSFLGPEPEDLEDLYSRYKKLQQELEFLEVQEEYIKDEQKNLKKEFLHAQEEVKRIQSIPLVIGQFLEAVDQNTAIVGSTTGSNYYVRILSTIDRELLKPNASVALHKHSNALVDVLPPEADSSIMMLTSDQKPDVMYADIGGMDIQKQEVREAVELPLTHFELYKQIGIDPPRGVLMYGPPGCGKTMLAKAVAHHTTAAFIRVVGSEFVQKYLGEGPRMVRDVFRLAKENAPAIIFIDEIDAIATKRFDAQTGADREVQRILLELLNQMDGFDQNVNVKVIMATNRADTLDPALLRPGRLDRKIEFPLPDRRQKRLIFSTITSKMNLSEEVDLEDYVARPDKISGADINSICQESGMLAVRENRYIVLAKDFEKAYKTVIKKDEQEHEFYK
# UniProt P46736, whole entry: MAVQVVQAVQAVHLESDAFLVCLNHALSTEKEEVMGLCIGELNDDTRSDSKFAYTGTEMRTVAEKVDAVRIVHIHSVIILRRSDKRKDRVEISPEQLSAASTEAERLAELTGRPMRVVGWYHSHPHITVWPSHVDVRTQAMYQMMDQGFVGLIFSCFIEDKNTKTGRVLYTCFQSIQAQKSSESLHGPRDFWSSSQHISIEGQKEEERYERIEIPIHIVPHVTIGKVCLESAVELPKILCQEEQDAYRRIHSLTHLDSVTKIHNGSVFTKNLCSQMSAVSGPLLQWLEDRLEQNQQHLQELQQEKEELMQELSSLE
# UniProt P49189: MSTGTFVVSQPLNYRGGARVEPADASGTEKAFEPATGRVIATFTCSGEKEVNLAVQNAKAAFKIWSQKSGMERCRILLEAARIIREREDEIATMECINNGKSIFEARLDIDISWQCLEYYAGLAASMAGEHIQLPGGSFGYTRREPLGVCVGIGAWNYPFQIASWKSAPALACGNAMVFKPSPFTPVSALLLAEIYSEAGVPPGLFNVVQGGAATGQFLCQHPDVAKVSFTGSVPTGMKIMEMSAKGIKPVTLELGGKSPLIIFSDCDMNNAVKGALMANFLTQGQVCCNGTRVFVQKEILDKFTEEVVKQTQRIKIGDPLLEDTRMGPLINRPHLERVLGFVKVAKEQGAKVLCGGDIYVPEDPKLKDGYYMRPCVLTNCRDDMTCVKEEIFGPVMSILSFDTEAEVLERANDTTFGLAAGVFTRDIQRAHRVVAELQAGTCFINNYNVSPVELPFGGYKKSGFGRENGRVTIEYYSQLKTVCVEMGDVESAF
# UniProt P40337, whole entry, looked up: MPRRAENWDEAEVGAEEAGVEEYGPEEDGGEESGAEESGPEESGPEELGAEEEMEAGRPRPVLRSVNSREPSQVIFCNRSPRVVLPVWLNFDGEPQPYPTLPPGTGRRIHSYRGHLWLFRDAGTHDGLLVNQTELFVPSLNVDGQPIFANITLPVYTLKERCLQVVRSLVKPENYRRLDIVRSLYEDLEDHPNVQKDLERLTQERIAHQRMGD
# UniProt P52564: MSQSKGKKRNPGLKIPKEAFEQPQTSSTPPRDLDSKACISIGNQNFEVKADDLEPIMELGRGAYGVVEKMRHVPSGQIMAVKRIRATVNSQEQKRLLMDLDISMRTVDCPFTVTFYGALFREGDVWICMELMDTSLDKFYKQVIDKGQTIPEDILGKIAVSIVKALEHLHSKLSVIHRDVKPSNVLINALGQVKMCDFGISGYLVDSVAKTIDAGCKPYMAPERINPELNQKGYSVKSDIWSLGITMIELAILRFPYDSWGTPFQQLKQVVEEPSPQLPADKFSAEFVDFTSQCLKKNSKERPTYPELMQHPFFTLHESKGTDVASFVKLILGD
# UniProt P41162: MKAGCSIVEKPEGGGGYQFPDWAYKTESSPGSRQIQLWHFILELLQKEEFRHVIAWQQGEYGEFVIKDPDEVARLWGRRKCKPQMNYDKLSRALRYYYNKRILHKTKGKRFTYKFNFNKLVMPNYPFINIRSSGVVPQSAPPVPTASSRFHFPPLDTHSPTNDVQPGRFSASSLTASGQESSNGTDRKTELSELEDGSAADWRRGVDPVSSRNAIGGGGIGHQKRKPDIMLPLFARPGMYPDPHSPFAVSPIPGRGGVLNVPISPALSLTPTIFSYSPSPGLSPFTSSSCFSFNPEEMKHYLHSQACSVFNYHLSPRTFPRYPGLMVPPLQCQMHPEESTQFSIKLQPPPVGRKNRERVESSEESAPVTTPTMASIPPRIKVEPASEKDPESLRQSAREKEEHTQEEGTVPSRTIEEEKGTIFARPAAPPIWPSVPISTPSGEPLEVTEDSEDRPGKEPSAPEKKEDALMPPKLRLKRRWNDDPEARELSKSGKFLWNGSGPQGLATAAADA
# UniProt P47756, whole entry: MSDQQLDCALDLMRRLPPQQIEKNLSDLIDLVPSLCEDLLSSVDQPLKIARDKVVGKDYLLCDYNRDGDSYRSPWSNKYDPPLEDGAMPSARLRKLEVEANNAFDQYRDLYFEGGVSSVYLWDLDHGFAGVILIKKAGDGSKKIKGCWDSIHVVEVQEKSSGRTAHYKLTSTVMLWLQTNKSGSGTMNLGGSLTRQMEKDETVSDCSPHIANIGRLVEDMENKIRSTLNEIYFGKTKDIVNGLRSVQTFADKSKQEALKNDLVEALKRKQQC
# UniProt P51149, whole entry: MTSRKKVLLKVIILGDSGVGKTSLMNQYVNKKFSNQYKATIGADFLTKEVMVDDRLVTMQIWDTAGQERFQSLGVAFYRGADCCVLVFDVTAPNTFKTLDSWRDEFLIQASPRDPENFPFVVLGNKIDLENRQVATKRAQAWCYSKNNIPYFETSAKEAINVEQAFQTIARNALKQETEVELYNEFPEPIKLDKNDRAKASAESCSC
# UniProt P45880: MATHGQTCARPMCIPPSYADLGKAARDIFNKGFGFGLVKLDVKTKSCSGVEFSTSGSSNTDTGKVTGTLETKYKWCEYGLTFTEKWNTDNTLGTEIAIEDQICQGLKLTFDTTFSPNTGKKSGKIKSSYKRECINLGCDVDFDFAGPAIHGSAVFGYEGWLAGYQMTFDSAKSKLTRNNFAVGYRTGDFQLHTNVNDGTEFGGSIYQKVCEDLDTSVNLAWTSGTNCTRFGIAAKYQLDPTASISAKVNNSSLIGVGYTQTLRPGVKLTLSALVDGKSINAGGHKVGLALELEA
# UniProt P49137, whole entry, looked up: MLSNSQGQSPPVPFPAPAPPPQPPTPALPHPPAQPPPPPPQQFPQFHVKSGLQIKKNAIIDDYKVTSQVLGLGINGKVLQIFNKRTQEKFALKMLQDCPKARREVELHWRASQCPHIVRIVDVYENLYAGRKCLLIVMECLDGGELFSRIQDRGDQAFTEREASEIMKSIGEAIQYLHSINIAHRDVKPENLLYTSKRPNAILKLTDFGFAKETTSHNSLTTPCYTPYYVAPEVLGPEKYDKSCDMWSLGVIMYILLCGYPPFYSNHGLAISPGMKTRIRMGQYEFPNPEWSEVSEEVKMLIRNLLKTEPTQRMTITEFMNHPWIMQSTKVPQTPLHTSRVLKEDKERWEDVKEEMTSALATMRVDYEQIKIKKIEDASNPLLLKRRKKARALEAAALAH
# UniProt P36956: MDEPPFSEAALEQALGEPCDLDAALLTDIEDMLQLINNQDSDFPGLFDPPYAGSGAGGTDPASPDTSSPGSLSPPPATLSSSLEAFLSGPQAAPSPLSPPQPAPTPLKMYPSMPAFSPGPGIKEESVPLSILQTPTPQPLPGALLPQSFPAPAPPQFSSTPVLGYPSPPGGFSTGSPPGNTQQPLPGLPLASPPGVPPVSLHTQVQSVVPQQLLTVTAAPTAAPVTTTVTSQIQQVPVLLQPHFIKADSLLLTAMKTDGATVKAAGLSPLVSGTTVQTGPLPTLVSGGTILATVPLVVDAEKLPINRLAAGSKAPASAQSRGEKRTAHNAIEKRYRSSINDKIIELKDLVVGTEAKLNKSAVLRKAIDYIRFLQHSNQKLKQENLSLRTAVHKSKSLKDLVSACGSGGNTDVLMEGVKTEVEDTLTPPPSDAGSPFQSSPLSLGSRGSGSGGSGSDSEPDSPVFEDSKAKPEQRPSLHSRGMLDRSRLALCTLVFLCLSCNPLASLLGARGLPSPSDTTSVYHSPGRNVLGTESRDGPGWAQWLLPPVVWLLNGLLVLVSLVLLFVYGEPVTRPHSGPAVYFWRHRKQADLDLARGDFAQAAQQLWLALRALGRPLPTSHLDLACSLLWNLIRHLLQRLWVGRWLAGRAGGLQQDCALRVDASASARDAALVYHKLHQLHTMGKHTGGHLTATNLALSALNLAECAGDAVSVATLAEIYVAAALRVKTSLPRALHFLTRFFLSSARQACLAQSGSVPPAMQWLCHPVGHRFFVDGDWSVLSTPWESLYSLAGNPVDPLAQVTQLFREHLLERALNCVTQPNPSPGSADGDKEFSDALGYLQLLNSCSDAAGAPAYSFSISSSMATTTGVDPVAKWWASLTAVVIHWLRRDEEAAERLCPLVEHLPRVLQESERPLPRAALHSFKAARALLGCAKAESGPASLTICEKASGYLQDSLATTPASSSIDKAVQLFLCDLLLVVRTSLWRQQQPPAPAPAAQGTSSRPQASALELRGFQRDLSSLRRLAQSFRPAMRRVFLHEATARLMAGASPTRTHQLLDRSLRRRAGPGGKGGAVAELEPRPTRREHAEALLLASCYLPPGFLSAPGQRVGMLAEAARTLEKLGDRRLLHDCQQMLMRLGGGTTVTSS
# ± gives the standard deviation of the averaged measurements. The list shows a part of the results, in another mix than the full data.
# Compound: Nc1ncnc2c1ncn2[C@@H]1O[C@H](COP(=O)(O)OP(=O)(O)OP(=O)(O)O)[C@@H](O)[C@H]1O [adenosine triphosphate]
# Test: NP40-soluble protein abundance relative to vehicle (solubility fold change) (ratio); higher = more soluble protein in presence of ATP
# Procedure, shortened: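 Data come from three independent experiments in which Dounce-homogenised Jurkat crude lysate was treated at eight concentrations from 0.1 to 10 mM. Treatment ran 10 min at room temperature and then 3 min at 37 °C, after which 0.8% NP40 and benzonase were added for 60 min at 4 °C before ultracentrifugation. The supernatant underwent TMT labelling and LC-MS/MS, and vsn-normalised intensities were expressed as fold change against the detergent-processed vehicle in each replicate.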
Target,NP40-soluble protein abundance (concentration: 1mM),NP40-soluble protein abundance (concentration: 2mM),NP40-soluble protein abundance (concentration: 4mM),NP40-soluble protein abundance (concentration: 6mM),NP40-soluble protein abundance (concentration: 8mM),NP40-soluble protein abundance (concentration: 10mM)
DAP3 (UniProt P51398),1.04 ± 0.031,0.959 ± 0.066,0.951 ± 0.11,0.94 ± 0.13,0.951 ± 0.14,0.892 ± 0.1
GDI2 (UniProt P50395),1 ± 0.087,0.987 ± 0.053,0.967 ± 0.063,0.941 ± 0.086,0.975 ± 0.04,0.968 ± 0.049
PRIM1 (UniProt P49642),0.972 ± 0.038,0.961 ± 0.033,0.938 ± 0.059,0.946 ± 0.02,0.955 ± 0.053,0.958 ± 0.033
RANGAP1 (UniProt P46060),0.9641 ± 0.0018,0.9669 ± 0.0037,0.951 ± 0.017,1.02 ± 0.022,0.964 ± 0.027,0.985 ± 0.033
RGS19 (UniProt P49795),1 ± 0.025,0.954 ± 0.021,0.921 ± 0.049,0.954 ± 0.056,0.981 ± 0.045,0.978 ± 0.048
UniProt P51608-2,1.01 ± 0.061,1.03 ± 0.037,1.06 ± 0.03,1.11 ± 0.035,1.09 ± 0.032,1.13 ± 0.034
UniProt P45984 and related entries,0.981 ± 0.083,0.9967 ± 0.0064,1 ± 0.099,0.972 ± 0.022,1.01 ± 0.083,0.956 ± 0.049
RECQL (UniProt P46063),1.01 ± 0.12,1.01 ± 0.09,0.976 ± 0.075,0.939 ± 0.12,0.977 ± 0.044,0.993 ± 0.062
CPT1A (UniProt P50416),0.997 ± 0.096,1 ± 0.072,1.03 ± 0.052,0.954 ± 0.063,1.09 ± 0.012,1.09 ± 0.032
UniProt P49674,0.996 ± 0.017,1.02 ± 0.014,1.05 ± 0.021,1.117 ± 0.0069,1.05 ± 0.03,1.047 ± 0.0049
UniProt P40925 and related entries,0.96 ± 0.049,0.921 ± 0.025,0.877 ± 0.035,0.944 ± 0.057,0.906 ± 0.054,0.892 ± 0.034
RPL28 (UniProt P46779),0.92 ± 0.097,0.874 ± 0.16,0.821 ± 0.12,0.798 ± 0.21,0.575 ± 0.18,0.81 ± 0.13
UniProt P49754 and related entries,1.06 ± 0.029,1.04 ± 0.023,1.06 ± 0.04,0.983 ± 0.027,1.07 ± 0.035,1.03 ± 0.021
KIF11 (UniProt P52732),0.998 ± 0.021,0.993 ± 0.018,0.991 ± 0.015,0.99 ± 0.017,0.993 ± 0.022,0.97 ± 0.015
MARCKSL1 (UniProt P49006),0.809 ± 0.11,0.814 ± 0.17,0.784 ± 0.17,0.79 ± 0.15,0.72 ± 0.098,0.761 ± 0.23
UniProt P49588 and related entries,1 ± 0.014,0.972 ± 0.029,0.953 ± 0.021,0.995 ± 0.044,0.965 ± 0.037,0.939 ± 0.042
UniProt P49750-3|P49750-4,1.1 ± 0.056,1.16 ± 0.044,1.21 ± 0.046,1.36 ± 0.073,1.37 ± 0.015,1.47 ± 0.066
UniProt P49590 and related entries,1 ± 0.086,0.994 ± 0.074,0.969 ± 0.061,0.956 ± 0.079,1 ± 0.074,0.977 ± 0.07
SRP14 (UniProt P37108),0.909 ± 0.061,0.912 ± 0.045,0.836 ± 0.015,0.966 ± 0.073,0.901 ± 0.014,0.842 ± 0.1
STAT6 (UniProt P42226),0.983 ± 0.024,0.975 ± 0.013,0.952 ± 0.015,0.963 ± 0.048,0.9735 ± 0.0084,0.956 ± 0.023

# Random excerpt: 2 records from the list, in no set order.
Target,NP40-soluble protein abundance (concentration: 1mM),NP40-soluble protein abundance (concentration: 2mM),NP40-soluble protein abundance (concentration: 4mM),NP40-soluble protein abundance (concentration: 6mM),NP40-soluble protein abundance (concentration: 8mM),NP40-soluble protein abundance (concentration: 10mM)
GDI2 (UniProt P50395),1 ± 0.087,0.987 ± 0.053,0.967 ± 0.063,0.941 ± 0.086,0.975 ± 0.04,0.968 ± 0.049
DAP3 (UniProt P51398),1.04 ± 0.031,0.959 ± 0.066,0.951 ± 0.11,0.94 ± 0.13,0.951 ± 0.14,0.892 ± 0.1

# Continuation.

Target,NP40-soluble protein abundance (concentration: 1mM),NP40-soluble protein abundance (concentration: 2mM),NP40-soluble protein abundance (concentration: 4mM),NP40-soluble protein abundance (concentration: 6mM),NP40-soluble protein abundance (concentration: 8mM),NP40-soluble protein abundance (concentration: 10mM)
EPS15 (UniProt P42566),0.95 ± 0.028,0.971 ± 0.014,0.941 ± 0.022,0.983 ± 0.034,0.922 ± 0.027,0.938 ± 0.027
UniProt P41227,1.01 ± 0.064,0.971 ± 0.035,0.971 ± 0.065,1.01 ± 0.065,0.948 ± 0.051,0.973 ± 0.025
PSMC4 (UniProt P43686),0.9744 ± 0.0054,0.92 ± 0.039,0.897 ± 0.011,0.896 ± 0.089,0.932 ± 0.056,0.903 ± 0.045
UniProt P46736-2|P46736,1.03 ± 0.077,0.979 ± 0.027,0.995 ± 0.018,0.958 ± 0.078,0.998 ± 0.029,0.966 ± 0.021
KPNA1 (UniProt P52294),1.1 ± 0.018,1.08 ± 0.031,1.09 ± 0.013,1.1 ± 0.015,1.12 ± 0.037,1.1 ± 0.013
UniProt P36542 and related entries,0.964 ± 0.068,0.919 ± 0.049,0.89 ± 0.036,0.883 ± 0.045,0.918 ± 0.026,0.899 ± 0.057
CAPZA1 (UniProt P52907),1.01 ± 0.029,0.977 ± 0.033,0.962 ± 0.017,1.01 ± 0.038,0.964 ± 0.041,0.954 ± 0.046
ALDH9A1 (UniProt P49189),1.01 ± 0.049,0.992 ± 0.061,0.967 ± 0.035,0.975 ± 0.06,0.982 ± 0.049,0.988 ± 0.051
UniProt P52789 and related entries,1.01 ± 0.033,0.988 ± 0.03,0.988 ± 0.017,0.949 ± 0.045,0.991 ± 0.015,0.988 ± 0.016
IQGAP1 (UniProt P46940),0.977 ± 0.063,0.983 ± 0.042,0.948 ± 0.029,0.947 ± 0.078,0.96 ± 0.02,0.971 ± 0.033
UniProt P52735 and related entries,0.952 ± 0.012,0.951 ± 0.049,0.9103 ± 0.0077,0.925 ± 0.049,0.933 ± 0.097,0.932 ± 0.05
STAT5B (UniProt P51692),1.02 ± 0.046,0.993 ± 0.024,0.989 ± 0.027,0.955 ± 0.041,0.982 ± 0.022,1.01 ± 0.024
UniProt P50053-2,0.977 ± 0.073,0.931 ± 0.044,0.92 ± 0.035,0.966 ± 0.075,0.894 ± 0.083,0.947 ± 0.046
RPL21 (UniProt P46778),0.958 ± 0.086,0.911 ± 0.13,0.842 ± 0.13,0.819 ± 0.14,0.527 ± 0.039,0.872 ± 0.11
CAPG (UniProt P40121),0.993 ± 0.032,0.985 ± 0.035,0.948 ± 0.033,0.994 ± 0.032,0.944 ± 0.034,0.952 ± 0.024
UniProt P50995 and related entries,0.984 ± 0.026,0.981 ± 0.025,0.9703 ± 0.0076,0.981 ± 0.025,0.941 ± 0.036,0.928 ± 0.052
UniProt P41223,1.04 ± 0.049,1.06 ± 0.024,1.1 ± 0.063,1.09 ± 0.075,1.18 ± 0.064,1.18 ± 0.036
UniProt P42331-4|P42331,0.97 ± 0.034,0.984 ± 0.029,0.983 ± 0.03,0.996 ± 0.025,0.953 ± 0.029,0.959 ± 0.021
UniProt P50548 and related entries,1.08 ± 0.045,1.09 ± 0.085,0.998 ± 0.13,0.967 ± 0.077,0.959 ± 0.035,1.06 ± 0.13
RABIF (UniProt P47224),0.939 ± 0.026,0.986 ± 0.014,0.938 ± 0.042,0.936 ± 0.027,0.912 ± 0.046,0.905 ± 0.0093

Target,NP40-soluble protein abundance (concentration: 1mM),NP40-soluble protein abundance (concentration: 2mM),NP40-soluble protein abundance (concentration: 4mM),NP40-soluble protein abundance (concentration: 6mM),NP40-soluble protein abundance (concentration: 8mM),NP40-soluble protein abundance (concentration: 10mM)
MRPL19 (UniProt P49406),1.02 ± 0.091,0.896 ± 0.032,0.845 ± 0.051,0.851 ± 0.17,0.85 ± 0.072,0.855 ± 0.082
UniProt P40337-2|P40337-3,0.894 ± 0.077,0.919 ± 0.053,0.868 ± 0.052,0.847 ± 0.073,0.878 ± 0.13,0.854 ± 0.14
COIL (UniProt P38432),1.13 ± 0.13,1.17 ± 0.16,1.36 ± 0.1,1.45 ± 0.21,1.49 ± 0.17,1.67 ± 0.13
DHPS (UniProt P49366),0.994 ± 0.014,0.993 ± 0.017,0.977 ± 0.018,0.993 ± 0.015,0.976 ± 0.011,0.96 ± 0.025
PTDSS1 (UniProt P48651),1.1 ± 0.013,1.14 ± 0.088,1.24 ± 0.048,1.33 ± 0.077,1.4 ± 0.082,1.47 ± 0.041
SLC26A2 (UniProt P50443),0.962 ± 0.12,0.986 ± 0.098,0.88 ± 0.073,0.949 ± 0.071,0.996 ± 0.15,0.984 ± 0.14
MLH1 (UniProt P40692),1.28 ± 0.03,1.31 ± 0.032,1.32 ± 0.015,1.31 ± 0.039,1.33 ± 0.046,1.3 ± 0.086
UniProt P52209 and related entries,0.952 ± 0.051,0.954 ± 0.05,0.918 ± 0.03,0.924 ± 0.075,0.921 ± 0.051,0.933 ± 0.04
UniProt P52564,1.01 ± 0.057,0.998 ± 0.047,1.01 ± 0.056,0.98 ± 0.057,0.98 ± 0.043,0.965 ± 0.02
EIF2S3 (UniProt P41091),1 ± 0.068,1.04 ± 0.058,1.03 ± 0.044,1.01 ± 0.1,0.9862 ± 0.0073,1.06 ± 0.064
ETV3 (UniProt P41162),0.865 ± 0.099,0.953 ± 0.1,0.923 ± 0.062,1.06 ± 0.18,0.893 ± 0.017,1.007 ± 0.006
UniProt P47756-2,0.99 ± 0.031,0.989 ± 0.0099,0.964 ± 0.022,1.01 ± 0.017,0.955 ± 0.024,0.958 ± 0.021
GTF2A1 (UniProt P52655),0.923 ± 0.074,0.955 ± 0.22,0.905 ± 0.098,0.981 ± 0.12,0.8465 ± 0.0041,0.86 ± 0.16
MTOR (UniProt P42345),1.06 ± 0.084,1.03 ± 0.053,1.03 ± 0.063,0.987 ± 0.065,1.05 ± 0.022,1.04 ± 0.031
FASN (UniProt P49327),1.04 ± 0.11,0.991 ± 0.07,0.987 ± 0.064,0.911 ± 0.066,1.02 ± 0.02,0.988 ± 0.038
UniProt P51149,0.99 ± 0.08,0.976 ± 0.083,0.938 ± 0.053,0.932 ± 0.12,0.961 ± 0.084,0.939 ± 0.066
UniProt P45880 and related entries,0.964 ± 0.046,0.953 ± 0.038,0.909 ± 0.048,0.906 ± 0.062,0.907 ± 0.022,0.91 ± 0.02
MAPKAPK2 (UniProt P49137),0.959 ± 0.032,0.936 ± 0.024,0.923 ± 0.041,0.954 ± 0.012,0.92 ± 0.043,0.917 ± 0.029
ARHGDIA (UniProt P52565),0.919 ± 0.05,0.9232 ± 0.005,0.881 ± 0.028,0.94 ± 0.05,0.904 ± 0.04,0.915 ± 0.048
UniProt P36956 and related entries,0.959 ± 0.042,1.02 ± 0.076,1.02 ± 0.13,1 ± 0.12,0.969 ± 0.082,0.983 ± 0.11
